Test results reported in PubChem BioAssay AID1347076 (National Center for Advancing Translational Sciences (NCATS), 2019).
The campaign covered roughly 400,000 compounds. About 13,000 (3.2%) were called active. Inconclusive means that the source gave no clear call. Such entries were picked first, then a sample of the others. Calls come from the whole dose curve; as a rule, active = well fitted cell-killing curve with a large enough effect; inconclusive = small, poorly fitted or top-dose-only effect, or effect the other way; inactive = flat fitted curve, though single readings scatter. Where the call is inconclusive, the potency comes from a doubtful curve fit.

Assay: qHTS assay for MDR1-selective chemotherapeutics: Primary screen using the drug-selected MDR subline cells KB-V1; note: nearly all actives have a fitted effect of over 60% in size
Conditions: KB-V1 MDR cells viability, CellTiter-Glo, 72 h; activity change, negative = cytotoxicity: at 46.1 µM (top of the series)
Outline: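 KB-V1 MDR subline cells in DMEM (phenol-red free, 10% FBS) exposed to compounds in qHTS concentration series for 72 h at 37 degrees C. Viability read by CellTiter-Glo luminescence; concentration-effect curves fitted after normalization and correction.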
% is set by controls: 0 for no effect and ±100 for the full control effect; potency is the fitted concentration of half-maximal effect.

Structure (SMILES) | Potency | activity change, negative = cytotoxicity
O=C(O)CCC(=O)NNC(=O)CCC(=O)NCc1ccccc1 | inconclusive: 9.2 µM [rising, partial curve] | –
CCCCc1nc2ccccc2n1CC(=O)N(COCC)c1c(C)cccc1CC | inactive | –
Cc1noc(C)c1C(=O)NCC(=O)Nc1ccccc1Br | – | inconclusive: -20.2%
Nc1nc(SCC(=O)N2CCN(c3ccc(F)cc3)CC2)n[nH]1 | inactive | –
CC1=Nc2ccc(C)cc2/C1=C/c1c(N)n2oc(C)cc2nc1=O | inconclusive: 0.461 µM [cytotoxic, full curve, poor fit] | –
CC(=O)c1cccc(NC(=O)CSCc2ccccc2)c1 | inconclusive: 16.4 µM [cytotoxic, single point] | –
O=C1c2ccccc2C(=O)c2c(Nc3ccc(CCO)cc3)ccc(O)c21 | inactive | –
COc1ccc(-c2ccc(CN3C(CC(C)C)C(=O)N(Cc4cn(CCC5OCCO5)nn4)CCS3(=O)=O)cc2)cc1OC (stereo unspecified) | inactive | –
COc1ccc(/C(O)=C2/C(=O)C(=O)N(CCCC(=O)O)C2c2ccc(OC)c(OC)c2)cc1 (stereo unspecified) | inconclusive: 23.1 µM [rising, single point] | –
Cc1ccc(Nc2c(-c3ccccn3)nc3ccc(C)cn23)cc1 | inconclusive: 9.2 µM [cytotoxic, partial curve, poor fit] | –
CCO[C@@H]1OC(C(=O)N2CCN(Cc3ccccc3)CC2)=C[C@H](C2CC2)[C@H]1CCCO | inactive | –
O=C(O)c1cccc(N/N=C/c2ccc(OC(F)(F)F)cc2)c1 | inconclusive: 4.61 µM [rising, partial curve] | –
Cc1nc(C(=O)Nc2cccc(Cl)c2Cl)nn1-c1cc(OC(C)C)c(Cl)cc1Cl | inconclusive: 13 µM [cytotoxic, partial curve, poor fit] | –
C[C@H]1CCC(=O)N([C@H](COc2ccccc2)Cc2ccccc2)CC1 | inactive | –
C=C(CCC(=O)c1ccccc1)C(=O)c1ccccc1 | inconclusive: 20.6 µM [cytotoxic, single point] | –
N#CC(c1ccc(F)cc1)c1ccc(C(=O)c2ccc(F)cc2)cc1 (stereo unspecified) | inactive | –
Cc1ccc(N(CC(=O)NC2CCCCCC2)S(=O)(=O)c2c(C)nn(C)c2C)cc1 | active: 9.2 µM | –
O=C(CN1C(=O)NC2(CCCCC2)C1=O)Nc1ccccc1N1CCCCC1 | inconclusive: 29.1 µM [cytotoxic, single point] | –
c1cncc(CNc2cccc(-c3nc4ccccc4[nH]3)c2)c1 | inconclusive: 20.6 µM [cytotoxic, single point] | –
COc1ccc(C(=O)NC(=S)NNC(=O)c2c(-c3ccccc3)noc2C)cc1OC | inconclusive: 2.06 µM [cytotoxic, partial curve, poor fit] | –
COc1ccc(C(=O)CN2C(=O)COc3ccccc32)cc1 | inconclusive: 29.1 µM [rising, single point] | –
CC(C(=O)N1CCCc2c1c(=O)oc1ccc(O)cc21)N1CCc2ccccc2C1 (stereo unspecified) | inconclusive: 20.6 µM [cytotoxic, partial curve, poor fit] | –

Structure (SMILES) | Potency | activity change, negative = cytotoxicity
O=C(NCC(c1cccs1)N1CCc2ccccc21)c1ccccc1 (stereo unspecified) | inconclusive: 13 µM [cytotoxic, partial curve] | –
COc1cc2cc(Oc3ccc4ccc(=O)oc4c3)c(=O)oc2cc1OC(C)=O | inconclusive: 9.2 µM [rising, partial curve] | –
O=C(Nc1cc(C(F)(F)F)ccc1F)C1Cc2c(-c3ccccc3Oc3ccccc3)ccnc2O1 (stereo unspecified) | inconclusive: 23.1 µM [cytotoxic, single point] | –
COc1ccc(C(=O)c2c(C)oc3ccc(O)c(CN4CCOCC4)c23)cc1 | inconclusive: 6.51 µM [cytotoxic, partial curve] | –
CCn1c(CNC(=O)Cc2ccc(OC)cc2)nnc1SCC(=O)c1ccc(Br)cc1 | inactive | –
O=C(Nc1ccccn1)c1ccc(Cl)c(S(=O)(=O)N2CCCC2)c1 | inconclusive: 16.4 µM [cytotoxic, single point] | –
CCCCCOc1ccc(C(=O)NCC(=O)NCC(=O)OCC)cc1 | inconclusive: 14.6 µM [cytotoxic, single point] | –
CCOC(=O)c1ccc(NC(=O)c2ccc(C)c(S(=O)(=O)N3CCOCC3)c2)cc1 | inconclusive: 29.1 µM [cytotoxic, single point] | –
Cc1ccc(CNC(=O)Cn2nnc(C(=O)Nc3ccc(Br)cc3)c2N)cc1 | inconclusive: 0.731 µM [rising, full curve, poor fit] | –
Cn1c(C(O)C(O)c2ccccc2)nc2ccccc21 (stereo unspecified) | inconclusive: 29.1 µM [rising, single point] | –
CN(C)c1ncc(CN2CCC(CO)(CCCc3ccccc3)CC2)s1 | inconclusive: 9.2 µM [cytotoxic, partial curve] | –
CC(C)C(=O)Nc1cccc(NC(=O)c2ccc(Cl)cc2Cl)c1 | inconclusive: 14.6 µM [cytotoxic, partial curve] | –
COc1cc(CCC(=O)Nc2sccc2C#N)cc(OC)c1OC | inconclusive: 2.59 µM [rising, full curve, poor fit] | –
C[C@H](NC(=O)c1ccccc1)C(=O)OCC(=O)Nc1ccc(Cl)cn1 | inactive | –
Cc1cc(C)c(NC(=O)Cn2nnc(-c3nc(-c4ccccc4)no3)c2N)c(C)c1 | inactive | –
O=C(Nc1ccc2c(c1)nc1n2CCSC1)c1ccco1 | inactive | –
O=C(NCCOc1nc(N2CCCCC2)nc(N2CCCCC2)n1)Nc1ccccc1 | inconclusive: 11.6 µM [cytotoxic, partial curve] | –
Cc1ccc(-c2oc3ccccc3c(=O)c2O)cc1 | inconclusive: 23.1 µM [cytotoxic, single point] | –
O=C(CSc1ncnc2nc[nH]c12)N1CCN(c2ccc(Cl)cc2)CC1 | inconclusive: 20.6 µM [cytotoxic, single point] | –
C[C@H](CO)N1C[C@H](C)[C@@H](CN(C)S(C)(=O)=O)Oc2ccc(NC(=O)C3CC3)cc2C1=O | inconclusive: 7.31 µM [rising, partial curve, poor fit] | –
Cc1cccc(C)c1N=Cc1c(C(F)(F)F)[nH][nH]c1=O | inconclusive: 29.1 µM [rising, single point] | –
O=C(CCCC(=O)n1cnc2ccccc21)n1cnc2ccccc21 | inconclusive: 20.6 µM [rising, partial curve, poor fit] | –

Three compounds already listed, ordered by count of non-hydrogen atoms, rising:
Structure (SMILES) | Potency | activity change, negative = cytotoxicity
N#CC(c1ccc(F)cc1)c1ccc(C(=O)c2ccc(F)cc2)cc1 (stereo unspecified) | inactive | –
O=C1c2ccccc2C(=O)c2c(Nc3ccc(CCO)cc3)ccc(O)c21 | inactive | –
Cc1cc(C)c(NC(=O)Cn2nnc(-c3nc(-c4ccccc4)no3)c2N)c(C)c1 | inactive | –

More records

Structure (SMILES) | Potency | activity change, negative = cytotoxicity
CCCC1(C(=O)O)NC(c2ccccc2O)C2C(=O)N(Cc3ccccc3)C(=O)C21 (stereo unspecified) | inconclusive: 0.58 µM [rising, full curve, poor fit] | –
CC(c1nc2ccccc2[nH]1)n1c(=O)c(-c2ccco2)nc2ccccc21 (stereo unspecified) | inactive | –
O=C(NC1=NCCS1)c1ccc(Cl)c(S(=O)(=O)N2CCCCCC2)c1 | inconclusive: 13 µM [cytotoxic, partial curve] | –
CCCN(C)C1CN(Cc2cn(Cc3ccc(OC)cc3)nn2)S(=O)(=O)C1 (stereo unspecified) | inactive | –
CC(C)N(Cc1nc(-c2ccccc2)no1)C(=O)c1ccc(Cl)cc1 | inconclusive: 18.4 µM [cytotoxic, single point] | –
COc1cccc(CN2C(=O)C(C)Oc3ccccc32)c1 (stereo unspecified) | inactive | –
CCc1ccc(N(CC(=O)NC2CCCC2)C(=O)CCC(=O)Nc2ccccn2)cc1 | inconclusive: 4.11 µM [cytotoxic, partial curve, poor fit] | –
COc1ccc(CN2C[C@H]3CCCN3c3cc(Br)ccc3S2(=O)=O)cc1 | inconclusive: 1.64 µM [cytotoxic, full curve, poor fit] | –
COc1ccc(-c2cc(=O)oc3c4c(ccc23)OCN(Cc2cccc(OC)c2)C4)cc1 | inconclusive: 18.4 µM [rising, single point] | –
COC(=O)C1=C(C)N(c2ccc(OC)cc2)C(C)=C(C(=O)OC)C1c1ccccc1 | inconclusive: 10.3 µM [cytotoxic, partial curve] | –
CCOc1ccc(NC(=O)Cn2c(=O)n(CCCC(=O)NC3CCN(Cc4ccccc4)CC3)c(=O)c3ccccc32)cc1 | inconclusive: 29.1 µM [rising, single point] | –
CSc1ncc(C(=O)Nc2cc(Cl)ccc2C)c(-c2ccccc2)n1 | inactive | –
O=C1SCC(c2ccc(Cl)cc2Cl)=NN1Cc1nnc(-c2ccccc2)o1 | inconclusive: 16.4 µM [cytotoxic, single point] | –
O=C1N[C@@H](Cc2ccccc2)COC(=O)[C@@H](Cc2ccc(F)cc2)CC/C=C/C[C@H]1CC(=O)N(CCO)Cc1ccccc1 | inconclusive: 11.6 µM [cytotoxic, partial curve, poor fit] | –
Cc1cc(Nc2ccc(C)c(C)c2)n2ncnc2n1 | inconclusive: 32.6 µM [cytotoxic, single point] | –
O=C(CN1CCN(S(=O)(=O)c2ccc(Cl)cc2)CC1)NCc1cccs1 | inconclusive: 10.3 µM [cytotoxic, partial curve] | –
COc1ccc(NC(=O)C(=O)NCCC2CCCCN2S(=O)(=O)c2cccs2)cc1 (stereo unspecified) | active: 1.84 µM | –
CCCn1nc(C(=O)Nc2nnc(CC)s2)c2ccccc2c1=O | inconclusive: 10.3 µM [cytotoxic, partial curve] | –
CC(C)C(=O)Nc1cccc(C(=O)Nc2ccc(S(=O)(=O)Nc3nccs3)cc2)c1 | inactive | –
CC(C)(C)c1ccc(C(=O)N2CCC(C(=O)NC3CC3)CC2)cc1 | inconclusive: 6.51 µM [rising, full curve, poor fit] | –
Oc1ccc(N2CCN(c3ncnc4sc(-c5ccccc5)cc34)CC2)cc1 | inconclusive: 16.4 µM [cytotoxic, single point] | –
O=C1c2ccccc2C(=O)c2c(O)c(O)cc(O)c21 | inactive | –
